Experimental data published in patent US20200360391A1, “Medicinal Composition for Treating Intractable Heart Disease” (Osaka University, priority 2016, published 2020).
At least one read-out could not be matched to a standard name with certainty.

Assays:
[1] = tested on: spontaneous dilated cardiomyopathy (J2N-k) hamster model; experiment: Spontaneous dilated cardiomyopathy (J2N-k) hamster model, 8-week administration from 20 weeks of age (Tests 1-3): echocardiography, body weight
Procedure: The doses of pharmaceutical products were determined based on the no-observed-adverse-effect levels in a long-term toxicity study using rats. δ-Glycan-deficient spontaneous dilated cardiomyopathy (J2N-k) male hamsters (Japan SLC, Inc.) were delivered at 18 weeks of age. After a 2-week quarantine/acclimation, echocardiography was performed.
Each of the pharmaceutical products (A to K and O) was individually administered twice daily (at an interval of 8 hours or more) by oral gavage, and echocardiography was performed after 4 and 8 weeks (before dissection). Differences from the value before the start of administration (at the time of grouping) (amount of change: Δ) in each group were examined, and the cardiac function (EF value, FS %, etc.) was compared with that in the vehicle group (Group 1). Moreover, the heart was removed […] after the start of administration, and electron microscopy and RNA protein measurement were performed. Specimens for immunopathology were also collected and evaluated.
Each pharmaceutical product was individually suspended in 0.5% CMC-Na (sodium carboxymethylcellulose; Wako Pure Chemical Industries, Ltd.) before use, and administered. […] To Group 1 (control), 0.5% CNC-Na (vehicle) was administered.
Each pharmaceutical product was individually suspended in 0.5% CMC-Na (sodium carboxymethylcellulose; Wako Pure Chemical Industries, Ltd.) before use, and administered. Test substance G was suspended in distilled water before use, and administered.
Reason the doses were set (assuming that the adult body weight was 60 kg, the same amounts as the maximum clinical doses were set) • 1) The clinical dose of C (ozagrel; OZ) was 200 mg twice per day. The dose was thus set to 3.3 mg/kg twice per day. • 2) The clinical dose of D (cilostazol; CS) was 100 mg twice per day. The dose was thus set to 1.7 mg/kg twice per day. • 3) The clinical dose of E (pirfenidone; PF) was 600 mg three times per day, i.e., 1800 mg/day in total. The dose was thus set to 15 mg/kg twice per day. • 4) The clinical dose of G (nintedanib sulfonate; OB) was 150 mg twice per day. The dose was thus set to 2.5 mg/kg twice per day. • 5) The clinical dose of P (carvedilol; CV) was 10 mg twice per day. The dose was thus set to 0.17 mg/kg twice per day. • 6) Preparation 2 (PLGA⋅MS preparation of camostat; B⋅MS): the clinical dose of active substance camostat was 200 mg three times per day, i.e., 600 mg/day in total; thus, intermittent subcutaneous administration at a daily dose of 10 mg/kg once every 4 weeks, twice in total was set. The dose was 1/28 of the total oral dose amount.
The dose volume in oral administration was 5 mL/kg (the amount of liquid to be administered to each animal was calculated based on the most recent body weight), and administered by oral gavage using a polypropylene disposable syringe and a rat stomach tube.
The administration period of each pharmaceutical product was 8 weeks.

[2] = tested on: rat coronary artery complete ischemia model; experiment: Model of ischemia (MI) by rat coronary artery complete ligation (Tests 1 and 2): echocardiography, body weight; conditions: MI Test 1, NOAEL doses, mean ± S.D.
[3] = Test 1, p.o. b.i.d., NOAEL-based dose

Row | Structure (SMILES) | % FS 4 W [1, 3] [%] | % FS 8 W [1, 3] [%] | % FS value of change at 4 W compared with 0 W [1, 3] | % FS value of change at 8 W compared with 0 W [1, 3] | EF 4 W [1, 3] [%] | EF 8 W [1, 3] [%] | EF value of change at 4 W compared with 0 W [1, 3] | EF value of change at 8 W compared with 0 W [1, 3] | % FS ([2]; 1 Day (grouping)) [%] | EF (%) ([2]; 1 Day (grouping)) | % FS ([2]; 7 Day) [%] | EF (%) ([2]; 7 Day) | % FS ([2]; 14 Day) [%] | EF (%) ([2]; 14 Day) | % FS ([2]; 29 Day) [%] | EF (%) ([2]; 29 Day) | further results
1 | O=C(O)COc1cccc2c1CCC=C2CCO/N=C(\c1ccccc1)c1cccnc1 [Compound A, (E)-[5-[2-[1-phenyl-1-(3-pyridyl)methylideneaminooxy]ethyl]-7,8-dihydronaphthalen-1-yloxy]acetic acid] | 18 ± 2 | 17 ± 2 | <1 ± 2> % | <0 ± 2> % | 45 ± 3 | 43 ± 3 | <2 ± 4> % | <1 ± 4> % | 25 ± 3 | 57 ± 5 | 25 ± 3 | 59 ± 4 | 25 ± 2 | 58 ± 3 | 22 ± 2 | 51 ± 3 | –
2 | Cc1ccc(=O)n(-c2ccccc2)c1 [Compound E, Pirfenidone] | 17 ± 1 | 16 ± 1 | <0 ± 1> % | <−1 ± 1> % | 43 ± 3 | 40 ± 3 | <−1 ± 2> % | <−3 ± 3> % | 25 ± 2 | 57 ± 3 | 24 ± 2 | 56 ± 3 | 22 ± 3 | 53 ± 5 | 20 ± 2 | 49 ± 4 | % FS 4 W ([1]; Test 3, clinical dose): 16.6 ± 0.9%; % FS 8 W ([1]; Test 3, clinical dose): 15.1 ± 1.3%; % FS value of change at 4 W compared with 0 W ([1]; Test 3, clinical dose): <−1.7 ± 1.6> %; % FS value of change at 8 W compared with 0 W ([1]; Test 3, clinical dose): <−3.3 ± 2.1> %; EF 4 W ([1]; Test 3, clinical dose): 42.0 ± 1.9%; EF 8 W ([1]; Test 3, clinical dose): 38.8 ± 2.8%; EF value of change at 4 W compared with 0 W ([1]; Test 3, clinical dose): <−3.5 ± 3.1> %; EF value of change at 8 W compared with 0 W ([1]; Test 3, clinical dose): <−6.7 ± 4.2> %
